Results are given in words; binding and its absence hold for the method and conditions named. In cells and extracts the contact can be indirect. Binding can be weak; no strength is given. Each block holds one binder with its values, some of them ahead of it.
Target: FLAG-tagged TRAP150 ΔC359 (lacks the C-terminal 359-residue region)
Experiment: co-IP; anti-FLAG immunoprecipitation of FLAG-TRAP150 (full length or truncated) from lysate of transfected HEK293 cells (hypotonic buffer with 0.5% Triton X-100, brought to 150 mM NaCl); precipitates mock- or RNase A-treated; immunoblot of endogenous partners

binding: binds
B1: CPSF160 (protein, UniProt Q10570 1-1443)
chain: MYAVYKQAHPPTGLEFSMYCNFFNNSERNLVVAGTSQLYVYRLNRDAEALTKNDRSTEGKAHREKLELAASFSFFGNVMSMASVQLAGAKRDALLLSFKDAKLSVVEYDPGTHDLKTLSLHYFEEPELRDGFVQNVHTPRVRVDPDGRCAAMLVYGTRLVVLPFRRESLAEEHEGLVGEGQRSSFLPSYIIDVRALDEKLLNIIDLQFLHGYYEPTLLILFEPNQTWPGRVAVRQDTCSIVAISLNITQKVHPVIWSLTSLPFDCTQALAVPKPIGGVVVFAVNSLLYLNQSVPPYGVALNSLTTGTTAFPLRTQEGVRITLDCAQATFISYDKMVISLKGGEIYVLTLITDGMRSVRAFHFDKAAASVLTTSMVTMEPGYLFLGSRLGNSLLLKYTEKLQEPPASAVREAADKEEPPSKKKRVDATAGWSAAGKSVPQDEVDEIEVYGSEAQSGTQLATYSFEVCDSILNIGPCANAAVGEPAFLSEEFQNSPEPDLEIVVCSGHGKNGALSVLQKSIRPQVVTTFELPGCYDMWTVIAPVRKEEEDNPKGEGTEQEPSTTPEADDDGRRHGFLILSREDSTMILQTGQEIMELDTSGFATQGPTVFAGNIGDNRYIVQVSPLGIRLLEGVNQLHFIPVDLGAPIVQCAVADPYVVIMSAEGHVTMFLLKSDSYGGRHHRLALHKPPLHHQSKVITLCLYRDLSGMFTTESRLGGARDELGGRSGPEAEGLGSETSPTVDDEEEMLYGDSGSLFSPSKEEARRSSQPPADRDPAPFRAEPTHWCLLVRENGTMEIYQLPDWRLVFLVKNFPVGQRVLVDSSFGQPTTQGEARREEATRQGELPLVKEVLLVALGSRQSRPYLLVHVDQELLIYEAFPHDSQLGQGNLKVRFKKVPHNINFREKKPKPSKKKAEGGGAEEGAGARGRVARFRYFEDIYGYSGVFICGPSPHWLLVTGRGALRLHPMAIDGPVDSFAPFHNVNCPRGFLYFNRQGELRISVLPAYLSYDAPWPVRKIPLRCTAHYVAYHVESKVYAVATSTNTPCARIPRMTGEEKEFETIERDERYIHPQQEAFSIQLISPVSWEAIPNARIELQEWEHVTCMKTVSLRSEETVSGLKGYVAAGTCLMQGEEVTCRGRILIMDVIEVVPEPGQPLTKNKFKVLYEKEQKGPVTALCHCNGHLVSAIGQKIFLWSLRASELTGMAFIDTQLYIHQMISVKNFILAADVMKSISLLRYQEESKTLSLVSRDAKPLEVYSVDFMVDNAQLGFLVSDRDRNLMVYMYLPEAKESFGGMRLLRRADFHVGAHVNTFWRTPCRGATEGLSKKSVVWENKHITWFATLDGGIGLLLPMQEKTYRRLLMLQNALTTMLPHHAGLNPRAFRMLHVDRRTLQNAVRNVLDGELLNRYLYLSTMERSELAKKIGTTPDIILDDLLETDRVTAHF

binding: binds
B2: CPSF73 (protein, UniProt Q9UKF6 1-684)
chain: MSAIPAEESDQLLIRPLGAGQEVGRSCIILEFKGRKIMLDCGIHPGLEGMDALPYIDLIDPAEIDLLLISHFHLDHCGALPWFLQKTSFKGRTFMTHATKAIYRWLLSDYVKVSNISADDMLYTETDLEESMDKIETINFHEVKEVAGIKFWCYHAGHVLGAAMFMIEIAGVKLLYTGDFSRQEDRHLMAAEIPNIKPDILIIESTYGTHIHEKREEREARFCNTVHDIVNRGGRGLIPVFALGRAQELLLILDEYWQNHPELHDIPIYYASSLAKKCMAVYQTYVNAMNDKIRKQININNPFVFKHISNLKSMDHFDDIGPSVVMASPGMMQSGLSRELFESWCTDKRNGVIIAGYCVEGTLAKHIMSEPEEITTMSGQKLPLKMSVDYISFSAHTDYQQTSEFIRALKPPHVILVHGEQNEMARLKAALIREYEDNDEVHIEVHNPRNTEAVTLNFRGEKLAKVMGFLADKKPEQGQRVSGILVKRNFNYHILSPCDLSNYTDLAMSTVKQTQAIPYTGPFNLLCYQLQKLTGDVEELEIQEKPALKVFKNITVIQEPGMVVLEWLANPSNDMYADTVTTVILEVQSNPKIRKGAVQKVSKKLEMHVYSKRLEIMLQDIFGEDCVSVKDDSILSVTVDGKTANLNLETRTVECEEGSEDDESLREMVELAAQRLYEALTPVH
